Test: peptide made by a vendor
Conditions: whole synthesis

Substance: H-DPVDAVINTTCNYGQVVAALNATD-OH
- outcome: Synthesis of P1 peptide was unsuccessful due to extreme hydrophobicity
